{"source": "PubChem BioAssay AID602196 (INSERM, 2012)", "screen": "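Knock-downs that protect lung cancer cells from cisplatin or sensitise them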", "cells": "human A549 lung cancer cells", "reagent": "siRNA pair against human genes", "duration": "48 h transfection before cisplatin; time from cisplatin to read-out not stated", "treatment": "cisplatin at a dose killing half of control-siRNA cells; exact dose and duration not given", "measurement": "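Cisplatin cell death as a shift from the 50% death seen with control siRNA; siRNAs toxic or growth-blocking alone scored 0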", "scale": "two-siRNA summed score (-2 to +2): higher = both siRNAs protect from cisplatin killing; -2 means both sensitise", "hit rule": "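Each siRNA scores 0 if harmful alone by LDH or WST-1, otherwise +1 if it reduces and -1 if it increases cisplatin killing; a gene is active when both siRNAs agree (sum +2 or -2)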", "calls": "active = both siRNAs shift cisplatin killing the same way; inactive = no consistent shift, or siRNA harmful alone", "note": "Shown is an unselected part of about 23,000 reagents tested. 455 of all reagents (2%) count as active. 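Active includes both protection and sensitisation; some change values fall well beyond the stated -50 to +50 range.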 A number with no mark means an inactive call. Not all columns of the deposit are shown. Not given: the amount of reagent."}
{"gene knocked down":"CLNS1A","two-siRNA summed score (-2 to +2)":1}
{"gene knocked down":"LOC151760","two-siRNA summed score (-2 to +2)":0}
{"gene knocked down":"SYNE4","two-siRNA summed score (-2 to +2)":-1}
{"gene knocked down":"BPGM","two-siRNA summed score (-2 to +2)":0}
{"gene knocked down":"TMPRSS11E","two-siRNA summed score (-2 to +2)":0}
{"gene knocked down":"KIAA1223","two-siRNA summed score (-2 to +2)":0}
{"gene knocked down":"AK3","two-siRNA summed score (-2 to +2)":-1}
{"gene knocked down":"NFU1","two-siRNA summed score (-2 to +2)":1}
{"gene knocked down":"TXNDC11","two-siRNA summed score (-2 to +2)":0}
{"gene knocked down":"FAM234B","two-siRNA summed score (-2 to +2)":0}
{"gene knocked down":"PDPR","two-siRNA summed score (-2 to +2)":1}
{"gene knocked down":"GLB1L3","two-siRNA summed score (-2 to +2)":0}
{"gene knocked down":"KRTAP4-12","two-siRNA summed score (-2 to +2)":0}
{"gene knocked down":"PRSS12","two-siRNA summed score (-2 to +2)":-1}
{"gene knocked down":"SCARF2","two-siRNA summed score (-2 to +2)":-1}
{"gene knocked down":"FLJ10824","two-siRNA summed score (-2 to +2)":0}
{"gene knocked down":"TINAG","two-siRNA summed score (-2 to +2)":0}
{"gene knocked down":"CYP2B7P","two-siRNA summed score (-2 to +2)":-1}

Laid out differently: results already given.
gene knocked down | two-siRNA summed score (-2 to +2)
CLNS1A | 1
LOC151760 | 0
SYNE4 | -1
BPGM | 0
TMPRSS11E | 0

The list goes on.
{"gene knocked down":"MST1R","two-siRNA summed score (-2 to +2)":0}
{"gene knocked down":"DET1","two-siRNA summed score (-2 to +2)":0}
{"gene knocked down":"PTPRG","two-siRNA summed score (-2 to +2)":1}
{"gene knocked down":"TMEM140","two-siRNA summed score (-2 to +2)":0}
{"gene knocked down":"LOC400690","two-siRNA summed score (-2 to +2)":0}
{"gene knocked down":"PHF20L1","two-siRNA summed score (-2 to +2)":0}
{"gene knocked down":"PANK4","two-siRNA summed score (-2 to +2)":-1}
{"gene knocked down":"GTPBP3","two-siRNA summed score (-2 to +2)":1}
{"gene knocked down":"KLHL29","two-siRNA summed score (-2 to +2)":1}
{"gene knocked down":"CASP5","two-siRNA summed score (-2 to +2)":0}
{"gene knocked down":"ELL","two-siRNA summed score (-2 to +2)":0}
{"gene knocked down":"TULP1","two-siRNA summed score (-2 to +2)":0}
{"gene knocked down":"TIMM21","two-siRNA summed score (-2 to +2)":0}
